PubChem BioAssay AID493014 (National Center for Advancing Translational Sciences (NCATS), 2011)
This is one part of the list. Further columns of the screen follow, without active or inactive calls. The list favours compounds with an active or inconclusive main result. Words in brackets tell the shape of the fitted curve; partial curves, single points and poor fits give uncertain potencies.

Experiment: qHTS Assay to Find Inhibitors of Chronic Active B-Cell Receptor Signaling
Conditions: ABC-DLBCL IkBa-CBG/CBR reporter, luminescence ratio (green luciferase fused to IkBa over red control in TMD8 lymphoma cells), 4 h
In short: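 Concentration-response series (up to 46 uM) were applied to TMD8 dual-reporter cells for 4 h at 37C with doxycycline. Green/red ratio, after filter-overlap correction, defined %Activity; red signal alone was normalised to basal cells and zero luminescence.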

[1] = measured here: CBR red luminescence, cell number

Q: For COC(=O)c1c(-n2c(C)cc(C=O)c2C)sc2c1CCCC2, which AC50 [1] is on record?
A: 2.82 µM [falling, full curve, poor fit]

Q: With Cc1ccc(/C=C2\SC(=S)N(CCC(=O)Nc3cccnc3)C2=O)cc1 as the molecule, how does the AC50 [1] read?
A: 10 µM [falling, partial curve]

Q: Which AC50 [1] does the source give for CCOc1ccc(OCC)c(S(=O)(=O)NCc2ccccc2)c1 here?
A: 3.16 µM [rising, full curve, poor fit]

Q: For Cc1cc(=O)[nH]c2c(N=Nc3ccc(O)cc3)c(N)nn12, which AC50 [1] is on record?
A: 10 µM [falling, partial curve]

Q: With CC1=CC(C)(C)N(C(=O)CSc2nnc(N)s2)c2ccccc21 as the molecule, how does the AC50 [1] read?
A: 0.82 µM [rising, full curve, poor fit]

Q: Which results are given for CC(C)(C)NNC(=S)Nc1cccc(F)c1?
A: AC50 [1]: 35.5 µM [falling, single point]; AC50 (measured here: IkBa-CBG green luminescence): 14.1 µM [falling, partial curve]

Q: For Cc1cccc(CSc2ccc(-c3ccco3)nn2)c1, which AC50 [1] is on record?
A: 1.03 µM [rising, full curve]

Q: Which AC50 [1] does the source give for Cc1nc2oc3ccc(Cl)cc3c(=O)c2cc1C(=O)O here?
A: 20 µM [falling, single point]

Q: With CCC(CC)CN1C(Nc2ccccc2)=NC[C@@H]1CC(C)C as the molecule, how does the AC50 [1] read?
A: 35.5 µM [falling, single point]

Q: For COc1cc(CN2CCC(n3nccc3NC(=O)c3ccccc3OC)CC2)ccc1F, which AC50 [1] is on record?
A: 35.5 µM [falling, single point]

Q: For COc1cc(/C=N/NC(=O)C(=O)/C=C2\NC3(CCCC3)Cc3ccccc32)ccc1O, which AC50 [1] is on record?
A: 9.2 µM [rising, partial curve, poor fit]

Q: Which AC50 [1] does the source give for O=C(NN1CCOCC1)c1cc(S(=O)(=O)Nc2cccc(C(F)(F)F)c2)ccc1Cl here?
A: 0.82 µM [rising, full curve, poor fit]

Q: For COc1ccc(N(C(=O)c2cccnc2)S(=O)(=O)c2ccc(F)cc2)cc1, which AC50 [1] is on record?
A: 35.5 µM [falling, single point]

Q: Which AC50 [1] does the source give for O=C1N/C(=N\N=C\c2ccco2)SC1Cc1ccccc1[N+](=O)[O-] (configuration not stated) here?
A: 11.2 µM [falling, partial curve, poor fit]

Q: For COC(=O)c1sc(S(=O)(=O)N2CCN(CCO)CC2)c(C(=O)OC)c1C, which AC50 [1] is on record?
A: 35.5 µM [rising, single point]

Q: With COc1ccc(NC(C)c2ccccc2)cc1 (configuration not stated) as the molecule, how does the AC50 [1] read?
A: 2.51 µM [rising, full curve, poor fit]

Q: With Nc1nc(-c2ccc(Oc3ccccc3)cc2)cs1 as the molecule, how does the AC50 [1] read?
A: 0.447 µM [rising, full curve, poor fit]

Q: For CCc1c(C)nc2[nH]nc(-c3ccccc3)n2c1=O, which AC50 [1] is on record?
A: 4.47 µM [falling, partial curve, poor fit]

Q: With C=CCNCCOCCOc1ccc(Cl)cc1C(C)(C)C as the molecule, how does the AC50 [1] read?
A: 29.1 µM [falling, single point]

Q: With COc1cccc2c1OCC(C(=O)NCc1ccc(Cl)cc1Cl)=C2 as the molecule, how does the AC50 [1] read?
A: 29.1 µM [falling, single point]

Q: Which AC50 [1] does the source give for CCN1CCN(c2ccc(S(=O)(=O)N3CCCCC3)cc2NC(=O)/C=C/c2ccc(OC)c(OC)c2)CC1 here?
A: 6.51 µM [rising, single point]

Q: For O=C(Nc1cccs1)Nc1ccccc1Br, which AC50 [1] is on record?
A: 3.98 µM [falling, full curve, poor fit]

Q: With Cc1ccc(CCC(=O)Nc2ccccc2C(=O)O)o1 as the molecule, how does the AC50 [1] read?
A: 7.08 µM [falling, partial curve, poor fit]

Q: For N#CCSc1nc2ccccc2c2nc3ccccc3n12, which AC50 [1] is on record?
A: 0.92 µM [falling, full curve]

Q: Which AC50 [1] does the source give for c1csc(-c2csc3ncnc(NCCCN4CCOCC4)c23)c1 here?
A: 25.9 µM [falling, single point]

Q: With S=c1[nH]c2ccc3ccccc3c2[nH]1 as the molecule, how does the AC50 [1] read?
A: 3.55 µM [rising, partial curve, poor fit]

Q: For COc1ccc(C2(C)NC(=O)N(CC(=O)Nc3ccc4c(c3)CCC4)C2=O)cc1OC (configuration not stated), which AC50 [1] is on record?
A: 25.9 µM [rising, single point]

Q: With COc1ccc(-c2oc3ncn4nc(Cc5ccccc5)nc4c3c2-c2ccc(OC)cc2)cc1 as the molecule, how does the AC50 [1] read?
A: 0.146 µM [rising, full curve, poor fit]

Q: With O=c1[nH]c(SCc2nc3ccccc3n2Cc2ccccc2)nc2ccccc12 as the molecule, how does the AC50 [1] read?
A: 13 µM [rising, partial curve, poor fit]

Q: Which AC50 [1] does the source give for Cc1[nH]c2ccccc2c1-c1csc(NC(=O)CSCC(=O)O)n1 here?
A: 11.2 µM [falling, partial curve]

Q: For CCCC(=O)c1ccc(N2CCN(C(=O)c3ccccc3)CC2)c(F)c1, which AC50 [1] is on record?
A: 20.6 µM [falling, single point]

Q: For COc1ccc2oc(C(=O)N(C)Cc3ccc4c(c3)OCCO4)c(C)c2c1, which AC50 [1] is on record?
A: 32.6 µM [rising, partial curve, poor fit]

Q: Which AC50 [1] does the source give for Cc1ccc(CCNC(=O)C23CN(Cc4ccccc4)CC2C(c2ccc([N+](=O)[O-])cc2)=NO3)cc1 (configuration not stated) here?
A: 0.562 µM [rising, full curve, poor fit]

Q: For Cc1cc2occ(CC(=O)N(C)CC(=O)Nc3c(C)cccc3C)c2cc1C, which AC50 [1] is on record?
A: 0.461 µM [rising, full curve, poor fit]

Q: Which AC50 [1] does the source give for CCN(CC)S(=O)(=O)c1ccc(N2CCCC2)c(NC(=O)Cc2ccc(OC)cc2)c1 here?
A: 15.8 µM [rising, single point]

Q: Which AC50 [1] does the source give for CCOC(=O)Cc1csc(NC(=O)NC2(C(F)(F)F)Oc3ccccc3O2)n1 here?
A: 16.4 µM [falling, partial curve]

Q: For COC(=O)c1sccc1S(=O)(=O)N(CC(=O)Nc1ccccc1)c1ccccc1, which AC50 [1] is on record?
A: 10 µM [falling, partial curve, poor fit]

Q: For Cc1cc(C)c(OCC(=O)Nc2ccccn2)c([N+](=O)[O-])c1, which AC50 [1] is on record?
A: 23.1 µM [rising, partial curve, poor fit]

Q: With Cc1ccc(/C=C2/Sc3ccccc3N(CC(=O)NCC3CCCO3)C2=O)cc1 (configuration not stated) as the molecule, how does the AC50 [1] read?
A: 7.08 µM [rising, partial curve, poor fit]

Q: With C[C@H](NS(=O)(=O)c1c(Cl)cccc1Cl)C(=O)NNC(=O)COc1ccccc1F as the molecule, how does the AC50 [1] read?
A: 25.9 µM [falling, single point]

Q: With COc1ccc(-n2c(Cc3cccn3C)nnc2SCC(=O)Nc2ccc(C(C)=O)cc2)cc1 as the molecule, how does the AC50 [1] read?
A: 0.0058 µM [falling, full curve, poor fit]
